The target of this assay is T1, Tg-tagged human afamin (human) (UniProt P43652).
T1 sequence: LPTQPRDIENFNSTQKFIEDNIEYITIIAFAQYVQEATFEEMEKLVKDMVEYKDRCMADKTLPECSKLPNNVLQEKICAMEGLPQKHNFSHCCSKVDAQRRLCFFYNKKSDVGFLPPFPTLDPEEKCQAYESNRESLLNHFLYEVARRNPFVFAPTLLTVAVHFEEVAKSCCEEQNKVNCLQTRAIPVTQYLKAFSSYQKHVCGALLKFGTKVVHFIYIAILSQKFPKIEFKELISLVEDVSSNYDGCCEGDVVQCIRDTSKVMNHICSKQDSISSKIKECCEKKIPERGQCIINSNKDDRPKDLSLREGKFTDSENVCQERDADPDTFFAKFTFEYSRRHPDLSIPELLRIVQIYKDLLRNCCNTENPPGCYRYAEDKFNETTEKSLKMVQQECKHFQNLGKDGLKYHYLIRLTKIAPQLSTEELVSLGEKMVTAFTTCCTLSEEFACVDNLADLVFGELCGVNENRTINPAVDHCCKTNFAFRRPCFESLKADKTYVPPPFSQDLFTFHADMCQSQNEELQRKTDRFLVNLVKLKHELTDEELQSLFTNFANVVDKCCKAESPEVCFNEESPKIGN
In words: co-IP; anti-Tg antibody P20.1-Sepharose, serum-free culture media of Expi293F cells co-transfected with Tg-hAFM and PA-tagged human Wnts; immunoblot with biotinylated NZ-1.

Drawing on PMC4775226, “Active and water-soluble form of lipidated Wnt protein is maintained by a serum glycoprotein afamin/α-albumin” (eLife, 2016), this text covers binding for 1 substance.

These are yes or no findings as the source states them, for the method shown. In cells and extracts the contact can be indirect. Binding calls can cover weak binding; strength is not graded here. Where a sequence is shown, tags or fusion partners need not be part of it.

Regarding PA-tagged human Wnt2b, the binding entry was “binds”.
